Data: the supplement of paper PMC11006884
The entries are a selection whose mix differs from that of the whole data set.

By UniProt entry, the sequences of proteins in these tests, tags left out. Where a name states a change or a piece, a line headed by the entry shows the natural chain unless it says otherwise.
UniProt P33176: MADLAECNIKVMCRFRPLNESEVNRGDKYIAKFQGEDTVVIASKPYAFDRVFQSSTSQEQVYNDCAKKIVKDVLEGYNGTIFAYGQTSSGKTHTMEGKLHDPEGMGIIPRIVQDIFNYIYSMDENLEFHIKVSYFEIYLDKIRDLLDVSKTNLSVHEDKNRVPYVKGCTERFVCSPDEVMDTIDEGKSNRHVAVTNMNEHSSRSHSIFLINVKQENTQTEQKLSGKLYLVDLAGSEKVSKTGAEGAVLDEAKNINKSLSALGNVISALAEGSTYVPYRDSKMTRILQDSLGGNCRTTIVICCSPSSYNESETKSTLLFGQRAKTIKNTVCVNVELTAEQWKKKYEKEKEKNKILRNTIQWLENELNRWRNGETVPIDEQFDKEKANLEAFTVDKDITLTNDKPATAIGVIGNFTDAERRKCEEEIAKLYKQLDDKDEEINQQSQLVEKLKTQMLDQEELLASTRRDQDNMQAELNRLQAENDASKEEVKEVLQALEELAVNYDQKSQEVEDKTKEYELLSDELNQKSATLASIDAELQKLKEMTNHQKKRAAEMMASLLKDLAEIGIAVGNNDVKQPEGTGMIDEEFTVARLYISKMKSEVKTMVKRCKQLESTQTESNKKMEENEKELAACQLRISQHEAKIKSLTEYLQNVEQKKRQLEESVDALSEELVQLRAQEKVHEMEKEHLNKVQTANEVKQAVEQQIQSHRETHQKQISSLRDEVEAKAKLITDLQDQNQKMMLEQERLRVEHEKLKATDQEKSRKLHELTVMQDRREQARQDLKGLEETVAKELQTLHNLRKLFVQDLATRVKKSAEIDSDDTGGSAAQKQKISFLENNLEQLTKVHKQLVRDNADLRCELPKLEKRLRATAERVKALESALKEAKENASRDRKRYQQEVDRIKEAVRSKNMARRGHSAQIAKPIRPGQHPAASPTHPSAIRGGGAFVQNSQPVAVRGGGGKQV
UniProt P36873, whole entry, looked up: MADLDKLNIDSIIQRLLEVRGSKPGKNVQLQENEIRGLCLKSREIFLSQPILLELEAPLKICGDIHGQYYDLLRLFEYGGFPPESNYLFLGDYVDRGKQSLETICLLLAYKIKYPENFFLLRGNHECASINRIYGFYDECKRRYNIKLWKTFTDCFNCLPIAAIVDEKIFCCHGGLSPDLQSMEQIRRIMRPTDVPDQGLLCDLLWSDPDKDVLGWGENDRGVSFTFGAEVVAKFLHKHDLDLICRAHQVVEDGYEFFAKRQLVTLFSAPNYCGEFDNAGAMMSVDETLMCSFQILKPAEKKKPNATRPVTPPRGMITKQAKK
UniProt P41227: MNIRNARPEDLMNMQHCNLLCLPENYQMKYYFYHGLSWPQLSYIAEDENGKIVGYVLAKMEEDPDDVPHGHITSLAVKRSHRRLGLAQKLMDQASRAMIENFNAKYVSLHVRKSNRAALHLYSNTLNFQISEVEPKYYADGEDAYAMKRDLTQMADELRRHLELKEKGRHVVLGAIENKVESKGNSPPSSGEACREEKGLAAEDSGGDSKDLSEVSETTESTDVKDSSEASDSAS
UniProt P37802: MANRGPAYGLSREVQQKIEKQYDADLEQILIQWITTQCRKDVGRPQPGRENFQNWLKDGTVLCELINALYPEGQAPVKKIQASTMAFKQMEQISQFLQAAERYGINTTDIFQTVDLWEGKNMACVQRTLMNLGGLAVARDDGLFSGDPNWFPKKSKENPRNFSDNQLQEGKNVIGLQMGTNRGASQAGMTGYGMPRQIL
UniProt P35573: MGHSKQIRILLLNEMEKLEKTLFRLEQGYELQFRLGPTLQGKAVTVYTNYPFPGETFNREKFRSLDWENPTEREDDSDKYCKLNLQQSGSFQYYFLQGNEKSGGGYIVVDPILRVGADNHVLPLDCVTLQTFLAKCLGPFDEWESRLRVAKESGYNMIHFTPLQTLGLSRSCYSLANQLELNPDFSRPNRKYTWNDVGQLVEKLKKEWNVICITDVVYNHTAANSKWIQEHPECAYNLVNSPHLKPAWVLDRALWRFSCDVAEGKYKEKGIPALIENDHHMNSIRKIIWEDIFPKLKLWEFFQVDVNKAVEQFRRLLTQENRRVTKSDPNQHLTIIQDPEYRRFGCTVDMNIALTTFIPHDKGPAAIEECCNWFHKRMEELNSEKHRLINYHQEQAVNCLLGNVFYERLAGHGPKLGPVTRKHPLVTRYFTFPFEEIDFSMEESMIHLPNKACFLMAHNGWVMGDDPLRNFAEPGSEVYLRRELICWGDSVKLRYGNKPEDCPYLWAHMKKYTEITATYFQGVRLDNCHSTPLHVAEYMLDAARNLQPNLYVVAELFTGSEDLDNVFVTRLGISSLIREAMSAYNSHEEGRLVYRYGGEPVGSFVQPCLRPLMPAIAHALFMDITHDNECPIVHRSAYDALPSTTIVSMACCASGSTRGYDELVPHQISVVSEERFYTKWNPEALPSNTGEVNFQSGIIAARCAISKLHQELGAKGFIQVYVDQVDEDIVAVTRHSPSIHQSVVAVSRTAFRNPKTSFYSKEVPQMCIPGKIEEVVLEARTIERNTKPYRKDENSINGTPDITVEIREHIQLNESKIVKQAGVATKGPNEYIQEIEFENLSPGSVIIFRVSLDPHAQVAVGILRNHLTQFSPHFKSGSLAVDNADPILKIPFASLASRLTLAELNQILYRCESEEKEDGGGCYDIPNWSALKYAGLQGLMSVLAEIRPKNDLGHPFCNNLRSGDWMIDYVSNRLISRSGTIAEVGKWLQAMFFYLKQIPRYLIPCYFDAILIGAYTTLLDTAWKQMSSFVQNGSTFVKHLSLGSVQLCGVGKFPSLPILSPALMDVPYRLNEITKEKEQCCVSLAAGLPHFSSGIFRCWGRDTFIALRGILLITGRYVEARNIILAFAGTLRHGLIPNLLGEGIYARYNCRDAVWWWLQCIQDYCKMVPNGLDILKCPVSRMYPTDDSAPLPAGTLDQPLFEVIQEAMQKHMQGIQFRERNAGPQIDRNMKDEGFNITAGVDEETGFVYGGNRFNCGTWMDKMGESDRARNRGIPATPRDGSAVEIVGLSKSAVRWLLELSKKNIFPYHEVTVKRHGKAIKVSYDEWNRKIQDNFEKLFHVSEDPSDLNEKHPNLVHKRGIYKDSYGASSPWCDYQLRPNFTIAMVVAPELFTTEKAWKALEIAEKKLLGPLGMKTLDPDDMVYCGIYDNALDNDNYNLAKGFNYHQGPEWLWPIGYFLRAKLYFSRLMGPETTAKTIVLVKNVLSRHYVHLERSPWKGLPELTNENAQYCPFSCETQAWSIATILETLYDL
UniProt P33981: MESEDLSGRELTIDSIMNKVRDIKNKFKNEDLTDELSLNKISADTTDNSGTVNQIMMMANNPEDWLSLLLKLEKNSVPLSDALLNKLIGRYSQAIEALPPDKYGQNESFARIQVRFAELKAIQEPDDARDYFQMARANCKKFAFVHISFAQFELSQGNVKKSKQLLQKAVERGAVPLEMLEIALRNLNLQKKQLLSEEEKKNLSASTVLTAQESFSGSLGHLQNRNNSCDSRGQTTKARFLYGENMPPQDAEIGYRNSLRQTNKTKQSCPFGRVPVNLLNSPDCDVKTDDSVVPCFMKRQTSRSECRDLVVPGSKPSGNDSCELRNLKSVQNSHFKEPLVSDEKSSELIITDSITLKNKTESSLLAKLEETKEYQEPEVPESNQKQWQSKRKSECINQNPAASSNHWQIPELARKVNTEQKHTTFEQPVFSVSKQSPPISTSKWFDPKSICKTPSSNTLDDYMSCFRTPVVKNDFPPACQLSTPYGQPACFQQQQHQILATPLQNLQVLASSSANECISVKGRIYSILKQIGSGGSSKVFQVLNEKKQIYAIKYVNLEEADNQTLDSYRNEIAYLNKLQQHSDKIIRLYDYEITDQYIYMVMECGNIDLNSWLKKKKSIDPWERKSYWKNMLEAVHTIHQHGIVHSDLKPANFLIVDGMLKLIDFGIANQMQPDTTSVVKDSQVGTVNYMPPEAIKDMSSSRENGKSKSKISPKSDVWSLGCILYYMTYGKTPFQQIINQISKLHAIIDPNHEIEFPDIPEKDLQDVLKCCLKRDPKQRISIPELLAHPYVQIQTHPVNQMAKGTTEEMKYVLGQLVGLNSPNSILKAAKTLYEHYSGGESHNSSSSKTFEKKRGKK
UniProt P42695: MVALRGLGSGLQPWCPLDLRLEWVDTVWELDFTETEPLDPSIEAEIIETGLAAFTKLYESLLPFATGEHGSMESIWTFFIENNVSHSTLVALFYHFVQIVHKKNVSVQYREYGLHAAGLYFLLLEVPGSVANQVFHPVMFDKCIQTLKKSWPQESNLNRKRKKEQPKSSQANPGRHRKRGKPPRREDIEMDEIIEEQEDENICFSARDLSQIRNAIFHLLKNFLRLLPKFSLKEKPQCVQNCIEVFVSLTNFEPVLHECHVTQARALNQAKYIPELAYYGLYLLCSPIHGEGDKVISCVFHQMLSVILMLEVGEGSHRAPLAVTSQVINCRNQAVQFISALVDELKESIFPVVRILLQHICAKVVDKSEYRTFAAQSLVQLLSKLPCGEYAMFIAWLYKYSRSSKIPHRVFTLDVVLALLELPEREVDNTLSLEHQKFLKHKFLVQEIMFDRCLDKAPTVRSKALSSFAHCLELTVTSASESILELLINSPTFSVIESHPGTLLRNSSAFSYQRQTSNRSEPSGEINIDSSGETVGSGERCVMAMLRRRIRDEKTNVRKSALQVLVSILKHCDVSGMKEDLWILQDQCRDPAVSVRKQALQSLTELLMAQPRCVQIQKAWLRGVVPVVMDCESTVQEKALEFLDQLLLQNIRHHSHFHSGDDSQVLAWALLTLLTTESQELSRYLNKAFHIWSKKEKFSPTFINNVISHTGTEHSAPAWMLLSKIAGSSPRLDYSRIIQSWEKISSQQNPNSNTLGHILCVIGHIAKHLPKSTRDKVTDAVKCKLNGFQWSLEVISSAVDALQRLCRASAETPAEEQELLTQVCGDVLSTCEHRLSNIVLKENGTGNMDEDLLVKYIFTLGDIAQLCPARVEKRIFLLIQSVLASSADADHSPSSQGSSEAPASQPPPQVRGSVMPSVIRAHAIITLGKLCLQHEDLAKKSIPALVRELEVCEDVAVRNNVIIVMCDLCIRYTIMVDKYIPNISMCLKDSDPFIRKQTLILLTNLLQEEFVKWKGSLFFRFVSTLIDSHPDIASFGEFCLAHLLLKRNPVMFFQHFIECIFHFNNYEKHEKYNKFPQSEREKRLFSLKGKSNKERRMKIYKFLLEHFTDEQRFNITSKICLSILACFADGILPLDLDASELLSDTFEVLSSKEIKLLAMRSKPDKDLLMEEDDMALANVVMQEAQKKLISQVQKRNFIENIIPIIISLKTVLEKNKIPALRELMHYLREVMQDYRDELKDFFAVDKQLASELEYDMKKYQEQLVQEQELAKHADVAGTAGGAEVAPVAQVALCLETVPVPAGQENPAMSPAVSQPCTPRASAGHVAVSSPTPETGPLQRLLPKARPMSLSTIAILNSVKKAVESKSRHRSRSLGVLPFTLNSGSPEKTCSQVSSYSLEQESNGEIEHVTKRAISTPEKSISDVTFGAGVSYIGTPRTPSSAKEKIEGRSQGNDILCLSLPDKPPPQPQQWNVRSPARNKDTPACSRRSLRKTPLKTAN
UniProt P31939: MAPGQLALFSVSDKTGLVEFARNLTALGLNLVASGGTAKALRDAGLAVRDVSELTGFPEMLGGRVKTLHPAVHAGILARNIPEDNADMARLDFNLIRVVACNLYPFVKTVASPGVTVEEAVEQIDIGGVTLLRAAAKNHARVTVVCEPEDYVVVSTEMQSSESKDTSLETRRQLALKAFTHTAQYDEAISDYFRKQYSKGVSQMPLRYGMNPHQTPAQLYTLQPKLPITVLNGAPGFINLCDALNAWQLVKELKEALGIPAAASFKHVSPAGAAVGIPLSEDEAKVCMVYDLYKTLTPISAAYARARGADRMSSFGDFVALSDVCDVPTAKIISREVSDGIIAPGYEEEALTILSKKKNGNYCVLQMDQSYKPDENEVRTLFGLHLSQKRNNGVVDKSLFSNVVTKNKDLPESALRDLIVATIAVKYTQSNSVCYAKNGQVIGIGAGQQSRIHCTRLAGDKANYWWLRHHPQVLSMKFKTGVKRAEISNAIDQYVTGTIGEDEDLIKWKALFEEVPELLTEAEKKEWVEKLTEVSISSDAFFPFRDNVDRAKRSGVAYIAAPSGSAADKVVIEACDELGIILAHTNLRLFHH
UniProt P40926: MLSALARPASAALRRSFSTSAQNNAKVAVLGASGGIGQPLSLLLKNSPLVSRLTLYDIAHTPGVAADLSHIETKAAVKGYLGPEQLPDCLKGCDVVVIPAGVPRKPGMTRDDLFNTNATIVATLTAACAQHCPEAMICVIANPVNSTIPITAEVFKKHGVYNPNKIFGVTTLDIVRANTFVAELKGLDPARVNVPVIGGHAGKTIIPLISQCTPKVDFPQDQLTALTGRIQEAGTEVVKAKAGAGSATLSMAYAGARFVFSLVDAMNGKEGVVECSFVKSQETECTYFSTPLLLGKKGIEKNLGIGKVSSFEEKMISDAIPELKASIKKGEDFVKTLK

compound: COC(=O)C#Cc1ccccc1 [methyl 3-phenylpropiolate]; assay: log2 ratio of iodoacetamide-alkyne labeling of the cysteine site, DMSO over compound (competition); higher = stronger covalent engagement of the cysteine by the compound, active = 1 or more; settings: 500 µM; treatment time 1 h; system: HEK293T cell lysate
Summary of the method: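 Three replicates, each with duplicate channels, were prepared from HEK293T lysate (2 mg/mL) treated with vehicle or electrophile at 500 µM for 1 h at ambient temperature. Iodoacetamide alkyne was then applied for 1 h, and samples were clicked to sCIP-TMT reagents, pooled, trypsin-digested overnight at 37 °C, enriched on streptavidin, acid-eluted and analysed on Orbitrap Eclipse LC-MS/MS with FAIMS, with FragPipe quantification. The log2 competition ratio per cysteine is the mean control-channel divided by the mean compound-channel reporter intensity. Cysteines quantified in only one replicate were left out.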

log2 ratio of iodoacetamide-alkyne labeling, inactive:
KIF5B C330 (UniProt P33176) 0.177
RPL9 C134 (UniProt P32969) 0.0357
PPP1CC C127 (UniProt P36873) 0.00134
HSPA4 C38 (UniProt P34932) 0.635
ALDH1B1 C478 (UniProt P30837) 0.0133
UniProt P41227_C194 0.116
EIF2S3 C96 (UniProt P41091) 0.22
TAGLN2 C38 (UniProt P37802) -0.0194
CSTF2 C150 (UniProt P33240) 0.541
AGL C608 (UniProt P35573) 0.194
LRPPRC C484 (UniProt P42704) 0.184
TTK C229 (UniProt P33981) 0.945
NCAPD3 C330 (UniProt P42695) 0.316
ATIC C575 (UniProt P31939) 0.12
SHMT2 C119 (UniProt P34897) -0.0105
MDH2 C212 (UniProt P40926) 0.155

A run of entries from further up, as a working copy:
log2 ratio of iodoacetamide-alkyne labeling, inactive:
ATIC C575 (UniProt P31939) 0.12
SHMT2 C119 (UniProt P34897) -0.0105
MDH2 C212 (UniProt P40926) 0.155
